Some of the results follow.

By UniProt entry, the sequences of proteins in these tests, tags left out.
UniProt Q0JBA9, entry or part of it: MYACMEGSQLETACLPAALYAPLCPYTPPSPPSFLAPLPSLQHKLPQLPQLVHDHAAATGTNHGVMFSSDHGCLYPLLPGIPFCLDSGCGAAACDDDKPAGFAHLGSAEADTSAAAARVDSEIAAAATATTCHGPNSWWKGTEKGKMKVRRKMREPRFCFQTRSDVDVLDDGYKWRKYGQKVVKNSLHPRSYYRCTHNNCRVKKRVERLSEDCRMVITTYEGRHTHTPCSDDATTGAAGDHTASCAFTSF

The results in this text go back to PMC7819943, “Rice protein-binding microarrays: a tool to detect cis-acting elements near promoter regions in rice”.

In this assay the target is OsWRKY34 (Oryza sativa, UniProt Q0JBA9 1-250). Description: protein-binding microarray (RPBM); PBS, 2% BSA, 51.3 ng/ul salmon testes DNA, 50 uM zinc acetate, 200 nM TF, 25 C, 1 h; high values mean tight binding. The conditions noted are these: protein: recombinant; tags: N-terminal polyhistidine and DsRed monomer fusion (pET32a); label: CyDye5-dUTP incorporated in the synthesized complementary strand; 3' TTTTT single-stranded linker to array surface; dsDNA, one strand shown. A digest of the protocol:
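Transcription factors, each fused N-terminally to a polyhistidine tag and DsRed, were expressed in E. coli BL21-CodonPlus and purified on Ni–NTA. A custom Agilent array was made double-stranded by primer extension with Cy5-dUTP and blocked with 2% BSA. It was incubated with 200 nM protein in PBS, 2% BSA, salmon testes DNA and 50 µM zinc acetate at 25 °C for 1 h, then washed. The binding signal is per-feature fluorescence intensity (arbitrary units) read on an Axon 4000B scanner.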
In the case of “ATTGCAGCTGCCTTTTCTCCACTGAATTCTACTCCATTCTCGGAGTCACCTAGTGCAG”, the binding signal was 8460 fluorescence intensity (a.u.). Next, “CTCTCCCGGATCACACGACACCCACCGTTTGCCTACTTTTCGGAGTCACCTAGTGCAG”: 13400 fluorescence intensity (a.u.). As for “TTCGCTCATTTCCATTGGACGCAGCCAACTCCGCGTCCGCCGGAGTCACCTAGTGCAG”, the figure is 8310 fluorescence intensity (a.u.); as for “ATGTATGGCCTGGTTTAGTTCCCCAGCTTTTTTCCCTAAACGGAGTCACCTAGTGCAG”, 9740 fluorescence intensity (a.u.). Next, “CCTACTCTTGATTATGGTGCTTTTGTTTTGCGCTTATTTCCGGAGTCACCTAGTGCAG”: 14600 fluorescence intensity (a.u.); “AAGTGTGATTTCCTCGTTAGTTCGATACGTTTCACGTTTGCGGAGTCACCTAGTGCAG”: 8240 fluorescence intensity (a.u.); “ATCTCGCCTCTTTGCGCTTTCGCTGGAACCCTATTTCTCCCGGAGTCACCTAGTGCAG”: 13600 fluorescence intensity (a.u.). As to “TCCGCGCTTCTTCCACCCGATCGCGCCTCTCCCTCACGCACGGAGTCACCTAGTGCAG”, the binding signal was 10000 fluorescence intensity (a.u.). Next, “CCCTTCCCCACGTGTTCTCCTCTTCCCCGCCACGACGAAGCGGAGTCACCTAGTGCAG”: 8210 fluorescence intensity (a.u.). Next, “CACCAATCACTGGGCCCGGCCGTACGTATCTCTTGTTCTCCGGAGTCACCTAGTGCAG”: 9750 fluorescence intensity (a.u.); “GGGTATGCTGTGGGCCAGAGGGGTGTGGCTAGTGGTGCCGCGGAGTCACCTAGTGCAG”: 9810 fluorescence intensity (a.u.). As for “TTTTGCTAACTGCGGTCATCTTAAATATTCAGTATTCCTTCGGAGTCACCTAGTGCAG”, the figure is 8900 fluorescence intensity (a.u.); as for “AGCGTGACCATTGTATGTCCGGCATGTGCTACACGGCTTTCGGAGTCACCTAGTGCAG”, 9680 fluorescence intensity (a.u.); as for “GCTGAGTTTTTTTCTAGATTTTCACAAGCTGTTTCTCATACGGAGTCACCTAGTGCAG”, 8840 fluorescence intensity (a.u.).

Take “GCACTTTGTTGCACGGTTCGCACCCCACCCCGGCGCGCGCCGGAGTCACCTAGTGCAG”: the binding signal was 9830 fluorescence intensity (a.u.).

“CGCTCGCTGGCACATTTATCATGTTTTCATTTTAAACCATCGGAGTCACCTAGTGCAG”: the binding signal was 8600 fluorescence intensity (a.u.). Consider “ACTTCTTCTTGGACTCTCCTTTTTTTTTCCGATTAATGTGCGGAGTCACCTAGTGCAG”, for which the binding signal was 10600 fluorescence intensity (a.u.). As to “CTGGTCAAATCCAATGCACCTCCACAAAAGCATCACACAACGGAGTCACCTAGTGCAG”, the binding signal was 8080 fluorescence intensity (a.u.). As for “GTGTTGCTGGTGAGGATGTGTTATGTGAATTTTAGTTCGACGGAGTCACCTAGTGCAG”, the figure is 8530 fluorescence intensity (a.u.). For “CACTCCGCTTCCTCTCCCGCCACCTCTCCTCTTCATCTTCCGGAGTCACCTAGTGCAG”, the binding signal is 8950 fluorescence intensity (a.u.). For “TGCTATTTGTACGTTGAATTTGTCTTTTTATATCTTCGATCGGAGTCACCTAGTGCAG”, the binding signal is 8550 fluorescence intensity (a.u.).

For the sequence “GTGCAGGATACATGTTAACTCCCTAACCTTTTCCTTTTTCCGGAGTCACCTAGTGCAG”, the binding signal was 8660 fluorescence intensity (a.u.). As for “TTCAGTGACCTACTGTACTTCGCCACCGCCTGCTTCTCGCCGGAGTCACCTAGTGCAG”, the figure is 9300 fluorescence intensity (a.u.).

Regarding “GTTTGTGTTCTTGGATTGGGTTGGGTTGGGTTGGTGAGGTCGGAGTCACCTAGTGCAG”, the binding signal was 17600 fluorescence intensity (a.u.). On to “GAGGGTGTGGTGGGTGAGCGCCGTCTTGACGAGGAGCGCGCGGAGTCACCTAGTGCAG”, for which the binding signal was 10000 fluorescence intensity (a.u.). As for “AGTATAACTATCTGTCTTATCGGTTATCTGTACTGCGACTCGGAGTCACCTAGTGCAG”, the figure is 8880 fluorescence intensity (a.u.). As for “CCATCCTACTTATTATACTAAATCGTTTTGTGGATGTGTACGGAGTCACCTAGTGCAG”, the figure is 9660 fluorescence intensity (a.u.). Next, “CTGTAAATTATTTTTCTATTGTTCTATTTATTCTTTTTCACGGAGTCACCTAGTGCAG”: 8030 fluorescence intensity (a.u.); “TAACTCACCCGCCCGACAGAGCCTCTCAATCTGCACGTCCCGGAGTCACCTAGTGCAG”: 8110 fluorescence intensity (a.u.). As for “ACTTATTTTACTGTGCTTCATTCAACCTTAATGGCAATGTCGGAGTCACCTAGTGCAG”, the binding signal was 12100 fluorescence intensity (a.u.).

As for “CGCCGCCGACGATCTCGTCTCGCACCGCCTCTCTCTCGGTCGGAGTCACCTAGTGCAG”, the binding signal is 8160 fluorescence intensity (a.u.). “ATTTTCCGGCGAGGTTTGTAGGGGAGGGATCGAGGAGATGCGGAGTCACCTAGTGCAG”: the binding signal was 8620 fluorescence intensity (a.u.). As for “TGTATATGTGCCCTTTTTGGTGGACGACCTGGCTAACTTTCGGAGTCACCTAGTGCAG”, the figure is 8510 fluorescence intensity (a.u.); as for “TCTGTCCGTGCCTCGCTTCCATCGCCATTGCTCTTTTGCTCGGAGTCACCTAGTGCAG”, 11100 fluorescence intensity (a.u.). As for “ACTATTTGCATTGTTCGTTGCTCTGCATTGCACCTCTCGACGGAGTCACCTAGTGCAG”, the figure is 10900 fluorescence intensity (a.u.); as for “AACTTTCTCCCACCGGCCACCGCGCGTCTCTTGCCACGACCGGAGTCACCTAGTGCAG”, 12200 fluorescence intensity (a.u.); as for “ACCCCGCCGCTGCCGCCGCCGACCCCACCGCCGACCCCGCCGGAGTCACCTAGTGCAG”, 11600 fluorescence intensity (a.u.). “TTTCGCCCCTCGCGGCCACGTTTTACTTTCCTTTTTTTTTCGGAGTCACCTAGTGCAG”: the binding signal was 13100 fluorescence intensity (a.u.). Take “TCCGCTCTCTCTCTCTCTCGTCGTCGACCGCCGCCGTCTGCGGAGTCACCTAGTGCAG”: the binding signal was 12800 fluorescence intensity (a.u.). Next, “GTTCGTTCTCCTTTCTTGTTTCGCGTGATCACCGGCGTCTCGGAGTCACCTAGTGCAG”: 12000 fluorescence intensity (a.u.); “GCCCTAGACATGGAAGAGGAGGGGAGAGGGGAAGGGGAGACGGAGTCACCTAGTGCAG”: 8740 fluorescence intensity (a.u.); “CTCAACCCTATCCATTCACTTCCAACCTCATCCACTCATTCGGAGTCACCTAGTGCAG”: 15000 fluorescence intensity (a.u.).
